In patent US12357608B2, “Methods and compositions utilizing RRx-001 combination therapy for radioprotection” (priority 2018, dated 2025):

Tests used:
CD2F1 male mice = experiment: Complete blood count with differential and reticulocytes after sublethal TBI or sham irradiation; format: in vivo; details: sham-irradiated, 10 mg/kg; longitudinal mixed model repeated measures
Method: (§1) To determine the pathophysiological effects of RRx-001 on hematopoietic protection in mice, CD2F1 male mice were treated with 10 mg/kg RRx-001 or the vehicle control 24 hours prior to a sublethal dose of TBI (7 Gy at 0.6 Gy/min using High-level Cobalt-60) or sham irradiation (day 0) according to the table below.
(§2) CD2F1 male mice (n=3/group) were divided into 4 experimental groups: 1) irradiation+vehicle, 2) irradiation+RRx-001, 3) sham-irradiation+vehicle and 4) sham-irradiation+RRx-001. Either 10 mg/kg RRx-001 or the vehicle control were IP injected 24 hours prior to either irradiation or sham-irradiation (day 0). On days 2, 7, 14, 21, and 28 post-irradiation (day 0) mice were humanely euthanized. Blood, bone marrow, and sternebrae were then collected. This experiment was performed in duplicate for a total of n=6 mice/group/time point.
Post-irradiation whole blood was obtained by terminal cardiocentesis. Blood samples were immediately transferred into EDTA tubes (Sarstedt Inc., Newton, NC) and gently rotated until the time of analysis. The tubes were analyzed for a complete blood count with differential and reticulocytes using the ADVIA 2120 (Siemens Medical Solutions Diagnostics, Dublin, Ireland), and Microsoft software version 5.9 (Microsoft Corp., Redmond, WA) to generate the data.
Blood parameters were compared between treatment groups using an analysis of variance (ANOVA). […]

bone marrow = experiment: Histopathological analysis of bone marrow sternebrae (cellularity grade, megakaryocytes) after sublethal TBI or sham irradiation; format: in vivo, mice; details: sham-irradiated
Method: as §1, §2
Sternebrae from euthanized mice (n=6/group/time point) were collected on days 2, 7, 14, 21 and 28 post-irradiation. Sternebrae were fixed in 10% zinc-buffered formalin for at least 24 hours and up to 7 days. Fixed sternebrae were decalcified for 3 hr in 12-18% sodium EDTA (pH 7.4-7.5) and specimens dehydrated using graded ethanol concentrations and embedded in paraffin. Longitudinal 4 μm sections were stained with regular hematoxylin and eosin. […] One of the pathologist scored all the samples blindly. Bone marrow was evaluated in situ within sternebrae and graded (Grade 1: <10%; Grade 2: 11-30%; Grade 3: 31-60%; Grade 4: 61-89%; Grade 5: >90%) for total cellularity. Megakaryocytes were also quantified based on the average per 10 high power fields (HPF) at 400× magnification using a BX43 or BX53 microscope (Olympus, Minneapolis, MN). […]
To determine the effect of RRx-001 on bone marrow, a histopathological analysis of bone marrow sternebrae was performed and the cellularity, as reported by grade (grade 1: <10%; grade 2: 11-30%; grade 3: 31-60%; grade 4: 61-89%; grade 5: ≥90% cellularity), and megakaryocyte numbers (averaged per 10 high-powered fields; HPF) were ascertained by two pathologists, one of which scored all the samples blindly (TAS, WEC).

O=C(CBr)N1CC([N+](=O)[O-])([N+](=O)[O-])C1 [RRx-001, 2-bromo-1-(3,3-dinitroazetidin-1-yl)ethan-1-one]
platelets, overall mean over time (standard error) (CD2F1 male mice): 1067.73 (32.26) | bone marrow cellularity grade (bone marrow; 10 mg/kg IP, whole study): 5 (grade 5: ≥90% cellularity) | overall cellularity of the bone marrow (bone marrow; 10 mg/kg IP, whole study (days 2-28)): ≥ 90% | number of megakaryocytes (bone marrow; 10 mg/kg, day 14, vs vehicle control): significantly higher than the vehicle control
